Values of other authors as cited in patent US20090130020A1, “DIAGNOSTIC AGENTS FOR POSITRON EMISSION IMAGING USING F-18 RADIO-LABELED AMINO-ALCOHOLS” (priority 2007, published 2009).
Some of these results come from one statement about several compounds together.

Test system: Cancer cell
Details: cancer cell uptake in-vitro; cited from earlier work

## [C-14]ethanolamine [[C-14] derivative of ethanolamine (1)]
  uptake relative to [C-14]choline: 2-3 fold

## [C-14]dimethyl-ethanolamine
  uptake relative to [C-14]choline: 2-3 fold
